The test system of one data set is A549R. Kind of data set: MTT cytotoxicity assay, cisplatin-resistant A549R. In kind it is cell-based, human. As to conditions: IC50(A549R)/IC50(A549). The protocol:
Compounds 1–4 were evaluated against three tumor cell lines derived from different tissues, including the cervix (HeLa), lung (A549) and cisplatin-resistant lung (A549R) tissues. For comparison, the cytotoxicity of cisplatin was also evaluated. As a control, the toxicities of the complexes were also tested against the normal human cell line (LO2).
The human cervix carcinoma cell line (HeLa), the lung carcinoma cell lines (A549 and A549R), and the human hepatocyte cell line (LO2) were obtained from the Experimental Animal Center at Sun Yat-Sen University (Guangzhou, China). The cells were maintained in Dulbecco’s modified Eagle’s medium (DMEM, Gibco BRL) or Roswell Park Memorial Institute 1640 (RPMI 1640, Gibco BRL) medium supplemented with 10% fetal bovine serum (FBS, Gibco BRL), 100 μg/mL streptomycin, and 100 U/mL penicillin (Gibco BRL) in a humidified incubator under 5% CO2 and 20% O2 at 37 °C. To maintain the resistant phenotype, A549R cells were incubated with 5 μM cisplatin and cultured in drug-free medium for at least a week before use.
The cytotoxicity of the ruthenium complexes and cisplatin were determined by an MTT assay. Briefly, cells were seeded into 96-well microtiter plates at 1 × 10^4 cells per well and grown overnight at 37 °C in a 5% CO2 incubator; then, different concentrations of the complexes in cell culture medium were added to the cultures. The plates were then incubated in an incubator for 48 h under the same conditions. The stock MTT dye solution (15 μL, 5 mg/mL) was added to each well. After 4 h of incubation, the cultures were removed and 150 μL of DMSO was added to each well. The optical density of each well was measured on a microplate spectrophotometer at a wavelength of 595 nm.

The test system of a further data set is A549R MCTSs. Kind of data set: Cytotoxicity test on 3D MCTSs (Cell TiterGlo ATP). Format: cell-based, human. The method, then: MCTSs were cultured using the liquid overlay method. A549R cells in the exponential growth phase were dissociated by a trypsin/EDTA solution to gain single-cell suspensions. A number of 3000 diluted A549R cells were transferred to 1.5% agarose-coated transparent 96-well plates with 200 μL of DMEM containing 10% serum. The single cells formed MCTS aggregates approximately 400 μm in diameter after three days with 5% CO2 and 20% O2 at 37 °C. After formation of the MCTSs, each MCTS in a 96-well plate was imaged with a phase contrast microscope (Zeiss Axio Observer D1, Germany) using 10× objective to monitor their color, integrity, diameter, and volume.
A549R MCTSs (diameters ≈400 μm) were treated by carefully replacing 50% of the medium with drug-supplemented standard medium using an eight-channel pipet. In parallel, 50% of the medium containing solvent was replaced with solvent-free medium for the untreated MCTSs. Three A549R MCTSs were treated per condition and drug concentration; the DMSO volume was less than 1% (v/v). […] The cytotoxicities of the Ru(II) complexes toward the MCTSs were measured using ATP concentrations with a Cell TiterGlo kit (Promega). After 30 min of incubation, the MCTSs were carefully transferred into black-sided, flat-bottomed 96-well plates (Corning) and mixed with a pipet for luminescence measurements on an Infinite M200 PRO instrument (TECAN).
In general terms: In ATP-based viability assays light output follows the ATP content of the culture.

This is an account of results in PMC4725915, “Ruthenium(II) Complexes with 2-Phenylimidazo[4,5-f][1,10]phenanthroline Derivatives that Strongly Combat Cisplatin-Resistant Tumor Cells” (Scientific Reports, 2016).

As for Ru(phen)(bzq)(tbtfpip)(PF6) [Complex 4], the “Resistant Index” value in the data set with A549R was determined as 0.8. Also, the “fold lower IC50 on A549R MCTSs than complex 2” value in the data set with A549R MCTSs (versus complex 2) is 53 fold. Besides, the “fold lower IC50 on A549R MCTSs than complex 3” value with A549R MCTSs (versus complex 3) came to 33 fold.
Consider `N.N.[Cl][Pt][Cl]` [cisplatin], for which the “Resistant Index” value in the data set with A549R is recorded as 6.69.
On to Ru(phen)2(tbtfpip)(PF6)2 [Complex 3], for which the “Resistant Index” value with A549R was found to be 1.13.
The same measure, in the same setting: for `FC(F)(F)c1ccc(-c2nc3c4cccnc4c4ncccc4c3[nH]2)cc1.[Ru+2].c1cnc2c(c1)ccc1cccnc12.c1cnc2c(c1)ccc1cccnc12` [Complex 2] the value was 1.11.
